This passage reports log2 fold change results from the supplement of paper PMC10849652.

Chains of the proteins cited; added tags and fusions are not shown. Lines headed by an entry give the natural chain unless they say otherwise; changes in a name come on top.
UniProt Q8WUY8: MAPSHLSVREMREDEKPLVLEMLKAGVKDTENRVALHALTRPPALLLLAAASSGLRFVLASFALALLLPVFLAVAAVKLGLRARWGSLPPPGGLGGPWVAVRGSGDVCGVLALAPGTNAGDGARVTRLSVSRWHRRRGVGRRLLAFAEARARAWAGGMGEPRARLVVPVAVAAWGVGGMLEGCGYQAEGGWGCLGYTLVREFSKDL
UniProt Q99747: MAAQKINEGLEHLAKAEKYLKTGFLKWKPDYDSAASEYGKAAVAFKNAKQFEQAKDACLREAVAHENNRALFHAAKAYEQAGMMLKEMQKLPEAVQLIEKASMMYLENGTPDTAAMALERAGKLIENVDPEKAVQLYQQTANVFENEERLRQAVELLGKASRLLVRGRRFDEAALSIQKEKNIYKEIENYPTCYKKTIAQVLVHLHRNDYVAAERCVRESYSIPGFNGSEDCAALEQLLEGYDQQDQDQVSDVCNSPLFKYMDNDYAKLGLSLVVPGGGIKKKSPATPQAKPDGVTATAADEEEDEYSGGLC
UniProt Q9BT67: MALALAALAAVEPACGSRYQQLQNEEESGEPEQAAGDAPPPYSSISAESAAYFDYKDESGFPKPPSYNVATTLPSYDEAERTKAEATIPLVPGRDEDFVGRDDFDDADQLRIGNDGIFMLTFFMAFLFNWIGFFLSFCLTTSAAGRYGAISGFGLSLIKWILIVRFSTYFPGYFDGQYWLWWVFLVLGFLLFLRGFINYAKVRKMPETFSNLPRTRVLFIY
UniProt O95167, whole entry, looked up: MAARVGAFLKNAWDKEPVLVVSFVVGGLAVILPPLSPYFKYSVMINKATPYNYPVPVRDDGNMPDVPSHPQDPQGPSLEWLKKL
UniProt Q16795, whole entry, looked up: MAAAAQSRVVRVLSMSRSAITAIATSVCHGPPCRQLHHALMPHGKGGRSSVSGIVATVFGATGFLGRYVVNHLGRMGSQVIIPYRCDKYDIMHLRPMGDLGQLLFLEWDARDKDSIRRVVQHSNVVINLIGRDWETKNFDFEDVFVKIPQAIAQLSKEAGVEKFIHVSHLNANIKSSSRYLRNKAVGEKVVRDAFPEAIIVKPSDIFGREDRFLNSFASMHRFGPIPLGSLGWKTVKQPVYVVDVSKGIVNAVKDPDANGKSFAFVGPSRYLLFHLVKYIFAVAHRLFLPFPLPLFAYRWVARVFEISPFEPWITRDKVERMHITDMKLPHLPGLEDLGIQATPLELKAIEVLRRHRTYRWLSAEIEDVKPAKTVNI
UniProt Q15788: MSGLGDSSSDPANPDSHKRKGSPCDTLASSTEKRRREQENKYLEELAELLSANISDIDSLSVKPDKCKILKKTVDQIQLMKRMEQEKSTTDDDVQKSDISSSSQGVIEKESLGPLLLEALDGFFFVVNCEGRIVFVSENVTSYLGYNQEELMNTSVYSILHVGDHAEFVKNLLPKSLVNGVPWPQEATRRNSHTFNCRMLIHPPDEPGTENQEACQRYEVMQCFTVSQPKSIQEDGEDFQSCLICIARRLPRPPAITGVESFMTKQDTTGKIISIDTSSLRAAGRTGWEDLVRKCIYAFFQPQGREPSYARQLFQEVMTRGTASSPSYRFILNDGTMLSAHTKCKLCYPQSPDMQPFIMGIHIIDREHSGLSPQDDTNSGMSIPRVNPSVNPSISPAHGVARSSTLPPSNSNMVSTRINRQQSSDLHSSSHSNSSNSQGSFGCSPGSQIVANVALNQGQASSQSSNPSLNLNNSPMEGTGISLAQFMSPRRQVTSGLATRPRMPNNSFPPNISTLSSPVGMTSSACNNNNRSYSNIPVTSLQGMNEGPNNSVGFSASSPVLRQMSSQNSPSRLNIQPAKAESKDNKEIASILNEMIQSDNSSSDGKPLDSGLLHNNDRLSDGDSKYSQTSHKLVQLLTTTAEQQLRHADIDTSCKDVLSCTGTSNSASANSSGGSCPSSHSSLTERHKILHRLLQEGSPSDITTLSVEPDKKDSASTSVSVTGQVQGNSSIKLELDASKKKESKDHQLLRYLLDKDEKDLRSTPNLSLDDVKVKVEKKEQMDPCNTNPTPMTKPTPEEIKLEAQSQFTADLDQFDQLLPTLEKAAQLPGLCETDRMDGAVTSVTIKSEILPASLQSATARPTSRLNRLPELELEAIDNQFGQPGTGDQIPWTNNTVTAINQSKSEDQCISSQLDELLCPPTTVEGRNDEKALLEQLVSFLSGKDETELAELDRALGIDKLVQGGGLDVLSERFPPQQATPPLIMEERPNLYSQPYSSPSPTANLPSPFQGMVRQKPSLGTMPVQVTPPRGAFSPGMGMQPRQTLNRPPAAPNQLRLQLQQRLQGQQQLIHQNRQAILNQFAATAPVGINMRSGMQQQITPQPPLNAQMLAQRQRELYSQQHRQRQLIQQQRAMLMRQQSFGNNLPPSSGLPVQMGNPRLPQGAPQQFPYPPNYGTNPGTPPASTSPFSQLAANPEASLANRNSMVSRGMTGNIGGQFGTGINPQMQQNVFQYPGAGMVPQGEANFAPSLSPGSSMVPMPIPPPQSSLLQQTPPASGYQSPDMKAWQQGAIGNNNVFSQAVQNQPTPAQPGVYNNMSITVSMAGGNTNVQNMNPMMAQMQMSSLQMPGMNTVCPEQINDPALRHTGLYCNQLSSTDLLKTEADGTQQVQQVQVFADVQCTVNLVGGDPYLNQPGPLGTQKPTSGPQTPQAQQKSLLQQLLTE
UniProt O75251, whole entry, looked up: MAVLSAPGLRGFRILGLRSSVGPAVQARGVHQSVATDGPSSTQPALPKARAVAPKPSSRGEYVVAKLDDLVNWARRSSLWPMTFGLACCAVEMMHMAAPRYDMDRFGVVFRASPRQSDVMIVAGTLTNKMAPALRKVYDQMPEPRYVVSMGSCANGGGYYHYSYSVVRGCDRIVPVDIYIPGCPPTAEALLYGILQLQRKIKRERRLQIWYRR

The other results are listed elsewhere or left out. Residues, ends and D or L forms follow the SMILES beside them. *: point of attachment. Cbz = O=C(OCc1ccccc1)*

What all share (assay): log2 fold change, soluble protein after heating vs DMSO (PISA); higher = thermal stabilisation; K562 cells, 10 uM, 30 min; active = over 0.2 and 3.5 SD of the protein, either way, in both replicates (recomputed)
Compound in one experiment: C#Cc1cccc(Nc2ncnc3cc(OCCOC)c(OCCOC)cc23)c1 [erlotinib]
A digest of the protocol: (§1)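 K562 cells at 2×10^6 cells/mL were treated with 10 μM compound for 30 min. Aliquots were heated for 3 min across 48°C-58°C, pooled, and extracted in PBS with 0.5% NP-40 at 4°C; soluble protein was the supernatant after 21,000xg for 90 min. Soluble protein was quantified by TMTpro 16plex LC-MS/MS with channel sums equalised, and reported as log2 fold change in thermal stability against DMSO controls, with values from duplicates.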

Compound in experiment [1]: C/C(=N\NC(=O)C1=CC(=CC=C1)S(=O)(=O)N2CCOCC2)/C3=C(C=CC(=C3)Cl)O
A digest of the protocol:
as §1

Compound in experiment [2]: C1=CC(=C(C=C1Cl)C2=NC3=NC=CN=C3C(=N2)NC4=CC=NC=C4)F
A digest of the protocol: as §1

Compound in experiment [3]: C1=CC(=CC=C1C2=NC3=C(N2)C=C(C=C3)C(=O)N)OC4=CC=C(C=C4)Cl
A digest of the protocol: as §1

Compound in experiment [4]: C1=CC2=C(C=CC(=C2)/C=C\3/C(=O)NC(=NCC4=CC=CS4)S3)N=C1
A digest of the protocol: as §1

Compound in experiment [5]: C1=CC2=NC=CN=C2C=C1/C=C/3\C(=O)NC(=O)S3
A digest of the protocol:
as §1

Compound in experiment [6]: C1=CC=C(C=C1)C2=NC(=C(N2)C3=CC=NC=C3)C4=CC(=C(C=C4)Cl)O
A digest of the protocol: as §1

Compound in experiment [7]: C1=CC=C2C(=C1)C3=NNC4=CC=CC(=C43)C2=O
A digest of the protocol:
as §1

Compound in experiment [8]: C1CCN(C1)C(=O)NC2=CC=CC(=C2)NC3=NC=C(C(=N3)NCCC4=CN=CN4)Br
A digest of the protocol:
as §1

Compound in experiment [9]: C1CN(CCC1(CC2=CC=C(C=C2)Cl)N)C3=NC=NC4=C3C=CN4
A digest of the protocol: as §1

Compound in the next experiment: C1COCCN1CCN2C3=CC=CC=C3N=C2NC(=O)C4=CC(=CC=C4)[N+](=O)[O-] [IRAK-1-4 Inhibitor I]
A digest of the protocol:
as §1

Compound in another experiment: C=CC(=O)N1CCC[C@@H](n2nc(-c3ccc(Oc4ccccc4)cc3)c3c(N)ncnc32)C1 [ibrutinib]
A digest of the protocol:
as §1

Compound in experiment [10]: CC(=O)c1cnc2ccc(-c3cc(Cl)c(O)c(Cl)c3)nc2c1N[C@H]1CC[C@H](CN(C)C)CC1
A digest of the protocol:
as §1

Compound in another experiment: CC(C)(C)Cn1c(N)nc2ccc(-c3[nH]c(C(C)(C)C)nc3-c3ccc(F)cc3)nc21 [ralimetinib]
A digest of the protocol:
as §1

Compound in experiment [11]: CC(C)(O)CC(=O)NCCn1ccc2ncnc(Nc3ccc(Oc4cccc(C(F)(F)F)c4)c(Cl)c3)c21
A digest of the protocol: as §1

Compound in experiment [12]: CC(C)C1=C2N=C(C=C(N2N=C1)NCC3=CC=CC=C3)NCCCCCCN
A digest of the protocol:
as §1

Compound in experiment [13]: CC(C)C[C@@H](C=O)NC(=O)[C@H](CC(C)C)NC(=O)[C@H](CC(C)C)NC(=O)OCc1ccccc1
A digest of the protocol: as §1

Compound in another experiment: CC(C)N(C[C@H]1O[C@@H](n2cnc3c(N)ncnc32)[C@H](O)[C@@H]1O)[C@H]1C[C@@H](CCc2nc3cc(C(C)(C)C)ccc3[nH]2)C1 [pinometostat]
A digest of the protocol:
as §1

Compound in experiment [14]: CC1=C(C2=C(C=C1)C(=O)C3=CC=CC=C3N2CCCN)C
A digest of the protocol:
as §1

Compound in experiment [15]: CC1=C(C(CC(=O)N1)C2=CC=C(C=C2)C(F)(F)F)C(=O)NC3=C(C=C4C(=C3)C=NN4)F
A digest of the protocol:
as §1

In the case of NAT14 (UniProt Q8WUY8), the log2 fold change in the experiment with erlotinib was inactive: -0.016; in [1], inactive: 0.079; in experiment [2], inactive: -0.002; in experiment [3], inactive: 0.014; in experiment [4], inactive: 0.057; in [5], inactive: 0.046. Besides, the log2 fold change in experiment [6] was inactive: 0.135; in experiment [7] it was inactive: 0.033; in [8], inactive: 0.002; in experiment [9], inactive: -0.084; with IRAK-1-4 Inhibitor I, inactive: -0.061; with ibrutinib it was inactive: 0.019. Further, the log2 fold change in experiment [10] was inactive: -0.033; with ralimetinib it was inactive: -0.028; in experiment [11], inactive: -0.257; in [12], inactive: -0.185; in [13] it was inactive: 0.027; with pinometostat, inactive: -0.074. For the same target, the log2 fold change in experiment [14] is inactive: -0.187.

Consider NAPG (UniProt Q99747), for which the log2 fold change is inactive: 0.081 with erlotinib; inactive: 0.134 in experiment [1]; inactive: 0.072 in experiment [2]; inactive: -0.019 in experiment [3]; inactive: 0.021 in [4]; inactive: 0.038 in experiment [5]. Also, the log2 fold change in [6] is inactive: -0.009; in experiment [7], inactive: 0.033; in experiment [8] it was inactive: -0.037; in experiment [9], inactive: -0.016; with IRAK-1-4 Inhibitor I, inactive: -0.071; with ibrutinib, inactive: -0.014. Further, the log2 fold change in experiment [10] is inactive: -0.067; with ralimetinib, inactive: -0.012; in experiment [11], inactive: -0.069; in experiment [12], inactive: -0.248; in experiment [13], inactive: 0.028; with pinometostat it was inactive: 0.016. For the same target, the log2 fold change in [14] is inactive: 0.016.

Take NDFIP1 (UniProt Q9BT67): the log2 fold change in the experiment with erlotinib was inactive: -0.066; in experiment [1], inactive: 0.07; in experiment [2], inactive: -0.046; in experiment [3], inactive: 0.077; in [4] it was inactive: -0.244; in experiment [5], inactive: 0.046. Also, the log2 fold change is inactive: 0.005 in experiment [6]; inactive: 0.122 in [7]; inactive: -0.234 in experiment [8]; inactive: -0.168 in [9]; inactive: -0.135 in the experiment with IRAK-1-4 Inhibitor I; inactive: -0.083 with ibrutinib. Besides, the log2 fold change in [10] was inactive: 0.146; with ralimetinib it was inactive: 0.084; in experiment [11], inactive: -0.401; in [12] it was active: -1.2; in experiment [13], inactive: 0.302; with pinometostat, inactive: 0.048. Also, the log2 fold change in experiment [14] is inactive: 0.152.

Regarding NDUFA3 (UniProt O95167), the log2 fold change with erlotinib was inactive: 0.058; in [1], inactive: 0.01; in experiment [2] it was inactive: 0.139; in experiment [3], inactive: -0.001; in experiment [4] it was inactive: 0.141; in experiment [5], inactive: 0.016. For the same target, the log2 fold change in experiment [6] is inactive: -0.088; in experiment [7], inactive: -0.077; in experiment [8], inactive: 0.019; in [9], inactive: -0.16; with ibrutinib it was inactive: 0.055; in experiment [10], inactive: -0.079. The log2 fold change with ralimetinib is inactive: -0.119; in [11], inactive: -0.059; in experiment [12] it was inactive: -0.248; in [13] it was inactive: 0.218; in experiment [15], inactive: 0.053; in experiment [14] it was inactive: 0.113.

In the case of NDUFA9 (UniProt Q16795), the log2 fold change with erlotinib was inactive: -0.031; in experiment [1], inactive: 0.035; in [2], inactive: 0.059; in experiment [3], inactive: 0.03; in experiment [4], inactive: 0.031; in [5] it was inactive: -0.016. The log2 fold change in experiment [6] is inactive: 0.025; in experiment [7], inactive: 0.047; in [8], inactive: 0.005; in experiment [9], inactive: 0.024; with IRAK-1-4 Inhibitor I, inactive: 0.003; with ibrutinib it was inactive: -0.036. Besides, the log2 fold change in experiment [10] is inactive: -0.037; with ralimetinib, inactive: -0.011; in [11], inactive: -0.211; in experiment [12], inactive: -0.101; in [13] it was inactive: 0; with pinometostat it was inactive: -0.006. In addition, in experiment [14], the log2 fold change is inactive: 0.086.

In the case of NCOA1 (UniProt Q15788), the log2 fold change was inactive: 0.018 with erlotinib; inactive: 0.114 in experiment [1]; inactive: 0.062 in [2]; inactive: 0.071 in experiment [3]; inactive: 0.077 in experiment [4]; inactive: 0.081 in experiment [5]. Besides, the log2 fold change in [6] was inactive: -0.065; in experiment [7], inactive: -0.044; in experiment [8], inactive: -0.018; in [9], inactive: -0.05; in the experiment with ibrutinib, inactive: 0.062; in experiment [10] it was inactive: -0.174. Moreover, the log2 fold change is inactive: -0.114 in the experiment with ralimetinib; inactive: -0.088 in [11]; inactive: -0.085 in experiment [12]; inactive: 0.133 in experiment [13]; inactive: 0.034 in experiment [15]; inactive: 0.124 in experiment [14].

As for NDUFS7 (UniProt O75251), the log2 fold change is inactive: 0.129 with erlotinib; inactive: -0.011 in experiment [1]; inactive: 0.039 in experiment [2]; inactive: -0.011 in [3]; inactive: 0.062 in [4]; inactive: 0.038 in experiment [5]. In addition, the log2 fold change is inactive: -0.052 in experiment [6]; inactive: 0.035 in experiment [7]; inactive: 0.045 in experiment [8]; inactive: 0.011 in [9]; inactive: 0.045 in the experiment with IRAK-1-4 Inhibitor I; inactive: -0.04 with ibrutinib. Moreover, the log2 fold change in [10] is inactive: -0.016; in the experiment with ralimetinib, inactive: -0.1; in experiment [11], inactive: -0.1; in experiment [12], inactive: -0.086; in [13], inactive: 0.05; with pinometostat it was inactive: -0.03. Also, in [14], the log2 fold change is inactive: 0.043.

With NDUFB10 (UniProt O96000), the log2 fold change is inactive: -0.009 in the experiment with erlotinib; inactive: -0.067 in experiment [1]; inactive: 0.018 in experiment [2]; inactive: 0.03 in experiment [3]; inactive: 0.06 in [4]; inactive: 0.025 in experiment [5]. Also, the log2 fold change in experiment [6] is inactive: -0.038; in experiment [7], inactive: -0.021; in [8], inactive: 0.026; in [9] it was inactive: 0.045; with IRAK-1-4 Inhibitor I, inactive: 0.015; in the experiment with ibrutinib it was inactive: 0.009. For the same target, the log2 fold change in experiment [10] was inactive: -0.001; in the experiment with ralimetinib it was inactive: -0.057; in experiment [11] it was inactive: -0.018; in [12], inactive: -0.11; in [13] it was inactive: 0.023; with pinometostat, inactive: -0.018. Moreover, the log2 fold change in experiment [14] is inactive: 0.009.
